Measured values from publication PMC4811540.
Results are given in words; binding and its absence hold for the method and conditions named. Binding seen in cells or lysates may run through a third protein. Some binding calls cover weakened binding; strength is not graded here.

By UniProt entry, the sequences of proteins in these tests, tags left out. Residues count along the entry.
UniProt P02751, residues 32-2477: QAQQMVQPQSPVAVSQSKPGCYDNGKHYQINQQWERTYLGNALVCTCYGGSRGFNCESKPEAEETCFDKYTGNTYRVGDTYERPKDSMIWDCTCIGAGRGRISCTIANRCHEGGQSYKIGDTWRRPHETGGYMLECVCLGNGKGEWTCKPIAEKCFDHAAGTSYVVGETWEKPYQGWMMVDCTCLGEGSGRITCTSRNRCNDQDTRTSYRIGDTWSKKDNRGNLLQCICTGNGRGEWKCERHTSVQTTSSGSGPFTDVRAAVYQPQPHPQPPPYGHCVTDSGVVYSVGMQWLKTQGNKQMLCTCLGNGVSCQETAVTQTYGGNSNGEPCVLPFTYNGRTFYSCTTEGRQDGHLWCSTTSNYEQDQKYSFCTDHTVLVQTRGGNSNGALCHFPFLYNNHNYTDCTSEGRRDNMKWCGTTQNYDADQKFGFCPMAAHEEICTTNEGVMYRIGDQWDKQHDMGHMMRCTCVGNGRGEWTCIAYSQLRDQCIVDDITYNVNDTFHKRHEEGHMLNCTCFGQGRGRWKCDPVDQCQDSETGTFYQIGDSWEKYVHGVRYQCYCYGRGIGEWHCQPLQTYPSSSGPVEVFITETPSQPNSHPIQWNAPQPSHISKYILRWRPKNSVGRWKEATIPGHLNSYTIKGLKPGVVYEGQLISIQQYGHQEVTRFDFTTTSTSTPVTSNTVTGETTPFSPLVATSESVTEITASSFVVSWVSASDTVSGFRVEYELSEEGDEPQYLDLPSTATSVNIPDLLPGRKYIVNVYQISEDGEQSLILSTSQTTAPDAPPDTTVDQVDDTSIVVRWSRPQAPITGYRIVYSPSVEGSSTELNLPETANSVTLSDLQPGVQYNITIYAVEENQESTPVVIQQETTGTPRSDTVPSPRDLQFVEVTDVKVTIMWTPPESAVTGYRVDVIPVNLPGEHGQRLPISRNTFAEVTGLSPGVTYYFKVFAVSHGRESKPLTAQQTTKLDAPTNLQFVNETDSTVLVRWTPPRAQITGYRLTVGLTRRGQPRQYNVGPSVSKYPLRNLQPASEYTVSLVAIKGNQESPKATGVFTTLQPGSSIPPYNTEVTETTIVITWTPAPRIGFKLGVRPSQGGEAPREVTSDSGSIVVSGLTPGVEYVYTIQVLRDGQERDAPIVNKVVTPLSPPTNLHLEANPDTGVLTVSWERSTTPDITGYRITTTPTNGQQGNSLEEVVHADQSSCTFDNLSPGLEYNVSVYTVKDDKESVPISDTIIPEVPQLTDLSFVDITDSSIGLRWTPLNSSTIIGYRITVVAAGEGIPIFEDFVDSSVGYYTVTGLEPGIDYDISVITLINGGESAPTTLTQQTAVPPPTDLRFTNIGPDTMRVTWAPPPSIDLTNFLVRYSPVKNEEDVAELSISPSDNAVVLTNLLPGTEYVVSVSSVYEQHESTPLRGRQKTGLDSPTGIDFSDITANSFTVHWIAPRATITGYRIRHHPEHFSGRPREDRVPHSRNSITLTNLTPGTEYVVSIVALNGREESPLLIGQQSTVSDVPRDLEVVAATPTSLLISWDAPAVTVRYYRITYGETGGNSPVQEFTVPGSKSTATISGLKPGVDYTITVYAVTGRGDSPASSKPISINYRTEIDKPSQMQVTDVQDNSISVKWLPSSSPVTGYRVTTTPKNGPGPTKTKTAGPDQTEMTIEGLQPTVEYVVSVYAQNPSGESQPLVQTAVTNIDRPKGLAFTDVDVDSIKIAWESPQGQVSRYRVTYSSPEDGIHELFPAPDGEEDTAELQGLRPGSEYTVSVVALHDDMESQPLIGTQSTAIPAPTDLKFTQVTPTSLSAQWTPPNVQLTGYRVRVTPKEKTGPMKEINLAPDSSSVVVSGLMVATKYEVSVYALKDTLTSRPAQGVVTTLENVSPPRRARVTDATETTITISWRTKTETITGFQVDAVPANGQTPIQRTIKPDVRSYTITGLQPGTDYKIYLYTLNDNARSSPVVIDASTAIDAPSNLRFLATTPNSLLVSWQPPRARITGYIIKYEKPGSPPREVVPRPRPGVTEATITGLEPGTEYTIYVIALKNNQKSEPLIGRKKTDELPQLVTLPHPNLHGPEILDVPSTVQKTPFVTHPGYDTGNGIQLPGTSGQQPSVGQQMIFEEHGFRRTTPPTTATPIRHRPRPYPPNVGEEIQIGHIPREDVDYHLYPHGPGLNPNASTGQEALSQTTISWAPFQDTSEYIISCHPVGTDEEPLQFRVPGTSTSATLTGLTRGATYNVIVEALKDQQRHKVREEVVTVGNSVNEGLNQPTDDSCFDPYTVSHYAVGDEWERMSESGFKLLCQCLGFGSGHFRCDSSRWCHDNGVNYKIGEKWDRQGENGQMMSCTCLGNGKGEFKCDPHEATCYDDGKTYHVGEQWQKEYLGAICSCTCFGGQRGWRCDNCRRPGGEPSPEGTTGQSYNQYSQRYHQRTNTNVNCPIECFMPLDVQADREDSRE

What was measured:
Assay in all cases: co-IP; endogenous proteins; Huh7 cells stimulated with SeV (MOI = 1) at the indicated times; Co-IP and immunoblot with the indicated antibodies
[1] = biological target: T1, Endogenous TAB1 (Huh7 cells) (human (endogenous in Huh7)) (UniProt Q15750)
T1 sequence: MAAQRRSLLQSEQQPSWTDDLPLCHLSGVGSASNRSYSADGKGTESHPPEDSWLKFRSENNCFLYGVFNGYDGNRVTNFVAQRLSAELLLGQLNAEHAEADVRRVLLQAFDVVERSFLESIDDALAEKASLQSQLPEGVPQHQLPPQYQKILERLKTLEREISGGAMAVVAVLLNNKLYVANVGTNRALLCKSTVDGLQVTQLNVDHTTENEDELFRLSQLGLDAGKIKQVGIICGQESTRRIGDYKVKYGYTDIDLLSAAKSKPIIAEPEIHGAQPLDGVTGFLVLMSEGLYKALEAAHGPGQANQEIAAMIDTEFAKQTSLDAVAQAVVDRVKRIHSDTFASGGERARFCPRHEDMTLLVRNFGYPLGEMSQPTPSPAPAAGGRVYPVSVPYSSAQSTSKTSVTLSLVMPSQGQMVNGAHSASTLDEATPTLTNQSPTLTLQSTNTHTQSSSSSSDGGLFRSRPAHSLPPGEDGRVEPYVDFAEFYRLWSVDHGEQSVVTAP

[2] = biological target: T2, Endogenous TAB3 (Huh7 cells) (human (endogenous in Huh7)) (UniProt Q8N5C8)
T2 sequence: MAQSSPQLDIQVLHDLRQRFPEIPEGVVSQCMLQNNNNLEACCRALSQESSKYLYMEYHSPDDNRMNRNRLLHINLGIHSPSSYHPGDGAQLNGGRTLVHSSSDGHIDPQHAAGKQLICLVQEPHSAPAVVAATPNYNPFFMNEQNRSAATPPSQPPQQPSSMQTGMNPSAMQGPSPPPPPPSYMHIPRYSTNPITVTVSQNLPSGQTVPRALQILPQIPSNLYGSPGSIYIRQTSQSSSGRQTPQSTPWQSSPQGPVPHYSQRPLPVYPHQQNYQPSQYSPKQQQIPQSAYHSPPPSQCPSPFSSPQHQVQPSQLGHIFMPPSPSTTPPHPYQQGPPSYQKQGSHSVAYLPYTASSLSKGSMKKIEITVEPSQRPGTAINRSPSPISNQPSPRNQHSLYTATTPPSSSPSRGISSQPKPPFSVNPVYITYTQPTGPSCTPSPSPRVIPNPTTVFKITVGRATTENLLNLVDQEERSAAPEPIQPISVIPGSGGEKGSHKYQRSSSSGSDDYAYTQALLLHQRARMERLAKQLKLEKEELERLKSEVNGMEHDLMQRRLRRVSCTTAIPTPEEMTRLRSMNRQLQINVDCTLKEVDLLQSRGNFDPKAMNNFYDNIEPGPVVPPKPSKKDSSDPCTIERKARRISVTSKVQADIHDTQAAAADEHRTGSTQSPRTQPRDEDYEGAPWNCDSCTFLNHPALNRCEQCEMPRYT

[3] = biological target: T3, Endogenous TAK1 (Huh7 cells) (human (endogenous in Huh7)) (UniProt O43318)
T3 sequence: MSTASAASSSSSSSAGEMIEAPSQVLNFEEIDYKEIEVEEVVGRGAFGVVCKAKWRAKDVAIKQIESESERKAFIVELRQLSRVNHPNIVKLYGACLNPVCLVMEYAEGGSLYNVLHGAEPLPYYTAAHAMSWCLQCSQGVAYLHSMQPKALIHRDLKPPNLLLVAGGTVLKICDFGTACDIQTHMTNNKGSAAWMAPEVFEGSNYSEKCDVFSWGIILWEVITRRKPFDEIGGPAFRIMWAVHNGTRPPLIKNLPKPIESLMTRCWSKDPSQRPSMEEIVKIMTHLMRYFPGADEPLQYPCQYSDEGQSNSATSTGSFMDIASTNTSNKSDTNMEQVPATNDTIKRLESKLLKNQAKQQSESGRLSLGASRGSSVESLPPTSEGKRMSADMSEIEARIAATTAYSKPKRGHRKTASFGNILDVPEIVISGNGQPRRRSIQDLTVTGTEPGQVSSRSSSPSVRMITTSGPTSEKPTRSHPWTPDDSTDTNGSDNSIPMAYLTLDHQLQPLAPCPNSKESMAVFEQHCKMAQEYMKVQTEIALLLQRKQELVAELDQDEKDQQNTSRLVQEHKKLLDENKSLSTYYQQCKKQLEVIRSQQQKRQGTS

[4] = biological target: T4, Endogenous TAB2 (Huh7 cells) (human (endogenous in Huh7)) (UniProt Q9NYJ8)
T4 sequence: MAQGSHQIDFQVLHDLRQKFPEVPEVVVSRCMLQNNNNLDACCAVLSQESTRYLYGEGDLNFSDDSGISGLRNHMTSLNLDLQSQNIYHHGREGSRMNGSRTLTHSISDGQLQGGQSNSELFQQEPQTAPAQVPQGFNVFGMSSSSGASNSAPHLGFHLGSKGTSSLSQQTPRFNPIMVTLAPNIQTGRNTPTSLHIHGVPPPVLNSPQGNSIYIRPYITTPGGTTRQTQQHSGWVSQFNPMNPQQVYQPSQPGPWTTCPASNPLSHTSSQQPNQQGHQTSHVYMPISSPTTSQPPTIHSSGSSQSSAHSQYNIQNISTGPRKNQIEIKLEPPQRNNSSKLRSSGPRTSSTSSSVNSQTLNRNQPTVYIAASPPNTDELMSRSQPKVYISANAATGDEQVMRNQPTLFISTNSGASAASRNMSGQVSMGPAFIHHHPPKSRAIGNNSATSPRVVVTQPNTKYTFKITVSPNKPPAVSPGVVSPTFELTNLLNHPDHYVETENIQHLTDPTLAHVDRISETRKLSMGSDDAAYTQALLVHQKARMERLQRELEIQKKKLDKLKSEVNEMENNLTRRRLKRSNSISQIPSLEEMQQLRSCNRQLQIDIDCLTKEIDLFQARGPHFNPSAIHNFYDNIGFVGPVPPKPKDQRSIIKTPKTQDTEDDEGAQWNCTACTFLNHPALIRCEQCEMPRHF

Measured: binding

Endogenous fibronectin (Huh7 cells) (from UniProt P02751 32-2477)
binds: [1] | [2] | [3] | [4]
